Source: doi:10.1101/2021.02.11.430699
No constants are given. Whether binding was seen depends on the method and setting. For some of these results: Binding seen in cells or lysates may run through a third protein. Some binding calls cover weakened binding; strength is not graded here. Tags and fused reporters may be left off the sequences shown.

Legend:
[1] = target: T1, Pol31 wild type, LexA bait fusion (S. cerevisiae) (UniProt P46957); assay: two-hybrid
T1 sequence: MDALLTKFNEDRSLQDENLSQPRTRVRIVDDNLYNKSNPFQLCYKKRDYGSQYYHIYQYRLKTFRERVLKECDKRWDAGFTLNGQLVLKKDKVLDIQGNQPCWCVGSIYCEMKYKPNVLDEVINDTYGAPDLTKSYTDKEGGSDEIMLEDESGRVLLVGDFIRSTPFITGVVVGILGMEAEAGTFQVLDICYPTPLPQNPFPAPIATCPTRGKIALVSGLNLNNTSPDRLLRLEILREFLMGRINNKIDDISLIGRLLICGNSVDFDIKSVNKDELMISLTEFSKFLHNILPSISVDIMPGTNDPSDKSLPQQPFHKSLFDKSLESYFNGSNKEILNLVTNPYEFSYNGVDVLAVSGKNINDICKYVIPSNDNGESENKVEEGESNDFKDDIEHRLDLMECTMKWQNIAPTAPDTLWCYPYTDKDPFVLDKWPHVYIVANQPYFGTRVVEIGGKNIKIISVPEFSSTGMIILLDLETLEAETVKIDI

[2] = target: T2, Pol31-W417A, LexA bait fusion (S. cerevisiae) (UniProt P46957); assay: two-hybrid
T2 sequence: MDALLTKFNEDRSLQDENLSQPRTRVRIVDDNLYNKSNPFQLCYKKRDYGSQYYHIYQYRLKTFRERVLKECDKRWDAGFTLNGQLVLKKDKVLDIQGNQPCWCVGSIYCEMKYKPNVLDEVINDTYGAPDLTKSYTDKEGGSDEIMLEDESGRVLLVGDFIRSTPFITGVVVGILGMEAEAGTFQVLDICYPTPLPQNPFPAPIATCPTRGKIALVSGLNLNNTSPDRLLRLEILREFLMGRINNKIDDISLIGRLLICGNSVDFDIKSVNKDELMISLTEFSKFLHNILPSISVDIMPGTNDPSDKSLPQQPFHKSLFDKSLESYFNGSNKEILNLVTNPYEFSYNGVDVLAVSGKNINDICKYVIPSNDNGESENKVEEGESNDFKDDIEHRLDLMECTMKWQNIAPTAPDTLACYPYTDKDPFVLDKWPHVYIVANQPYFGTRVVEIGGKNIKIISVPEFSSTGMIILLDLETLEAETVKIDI

[3] = target: T3, MBP-Pol3-CTD, CysA + CysB (Pol3 991-1097) (S. cerevisiae) (UniProt P15436); assay: pull-down
T3 sequence: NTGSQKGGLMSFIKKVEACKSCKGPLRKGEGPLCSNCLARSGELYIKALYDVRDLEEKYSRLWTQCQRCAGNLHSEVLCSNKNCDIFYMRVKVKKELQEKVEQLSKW

Row | Binder | binding [1] | binding [2] | binding [3]
1 | Pol3 C-terminus (991-1097) with the paired CysA and CysB domains, B42 prey fusion (domain or fragment, UniProt P15436 991-1097) NTGSQKGGLMSFIKKVEACKSCKGPLRKGEGPLCSNCLARSGELYIKALYDVRDLEEKYSRLWTQCQRCAGNLHSEVLCSNKNCDIFYMRVKVKKELQEKVEQLSKW | binds | binds | –
2 | HA-tagged Pol31 wild type (protein, UniProt P46957 1-487) MDALLTKFNEDRSLQDENLSQPRTRVRIVDDNLYNKSNPFQLCYKKRDYGSQYYHIYQYRLKTFRERVLKECDKRWDAGFTLNGQLVLKKDKVLDIQGNQPCWCVGSIYCEMKYKPNVLDEVINDTYGAPDLTKSYTDKEGGSDEIMLEDESGRVLLVGDFIRSTPFITGVVVGILGMEAEAGTFQVLDICYPTPLPQNPFPAPIATCPTRGKIALVSGLNLNNTSPDRLLRLEILREFLMGRINNKIDDISLIGRLLICGNSVDFDIKSVNKDELMISLTEFSKFLHNILPSISVDIMPGTNDPSDKSLPQQPFHKSLFDKSLESYFNGSNKEILNLVTNPYEFSYNGVDVLAVSGKNINDICKYVIPSNDNGESENKVEEGESNDFKDDIEHRLDLMECTMKWQNIAPTAPDTLWCYPYTDKDPFVLDKWPHVYIVANQPYFGTRVVEIGGKNIKIISVPEFSSTGMIILLDLETLEAETVKIDI | – | – | binds
3 | HA-tagged Pol31-W417A (protein, UniProt P46957 1-487) MDALLTKFNEDRSLQDENLSQPRTRVRIVDDNLYNKSNPFQLCYKKRDYGSQYYHIYQYRLKTFRERVLKECDKRWDAGFTLNGQLVLKKDKVLDIQGNQPCWCVGSIYCEMKYKPNVLDEVINDTYGAPDLTKSYTDKEGGSDEIMLEDESGRVLLVGDFIRSTPFITGVVVGILGMEAEAGTFQVLDICYPTPLPQNPFPAPIATCPTRGKIALVSGLNLNNTSPDRLLRLEILREFLMGRINNKIDDISLIGRLLICGNSVDFDIKSVNKDELMISLTEFSKFLHNILPSISVDIMPGTNDPSDKSLPQQPFHKSLFDKSLESYFNGSNKEILNLVTNPYEFSYNGVDVLAVSGKNINDICKYVIPSNDNGESENKVEEGESNDFKDDIEHRLDLMECTMKWQNIAPTAPDTLACYPYTDKDPFVLDKWPHVYIVANQPYFGTRVVEIGGKNIKIISVPEFSSTGMIILLDLETLEAETVKIDI | – | – | binds

Results, then the binder that gave them:

Row | binding [1] | binding [2] | binding [3] | Binder
4 | – | – | binds | HA-tagged Pol31-T415A (protein, UniProt P46957 1-487) MDALLTKFNEDRSLQDENLSQPRTRVRIVDDNLYNKSNPFQLCYKKRDYGSQYYHIYQYRLKTFRERVLKECDKRWDAGFTLNGQLVLKKDKVLDIQGNQPCWCVGSIYCEMKYKPNVLDEVINDTYGAPDLTKSYTDKEGGSDEIMLEDESGRVLLVGDFIRSTPFITGVVVGILGMEAEAGTFQVLDICYPTPLPQNPFPAPIATCPTRGKIALVSGLNLNNTSPDRLLRLEILREFLMGRINNKIDDISLIGRLLICGNSVDFDIKSVNKDELMISLTEFSKFLHNILPSISVDIMPGTNDPSDKSLPQQPFHKSLFDKSLESYFNGSNKEILNLVTNPYEFSYNGVDVLAVSGKNINDICKYVIPSNDNGESENKVEEGESNDFKDDIEHRLDLMECTMKWQNIAPTAPDALWCYPYTDKDPFVLDKWPHVYIVANQPYFGTRVVEIGGKNIKIISVPEFSSTGMIILLDLETLEAETVKIDI
5 | binds | binds | – | Pol3 CysB domain (1032-1097), B42 prey fusion (domain or fragment, UniProt P15436 1032-1097) GELYIKALYDVRDLEEKYSRLWTQCQRCAGNLHSEVLCSNKNCDIFYMRVKVKKELQEKVEQLSKW
